Laboratory results published in patent publication US20210107953A1 (SHAANXI MICOT TECHNOLOGY LIMITED COMPANY, priority 2019, published 2021).
Strings that start with PEPTIDE1 are HELM notation: dots part the residues, brackets hold end groups and non-standard residues. No end group written: not given here.

Assay: general procedure: Fmoc solid-phase peptide synthesis; 2-CTA resin, degree of substitution 0.93 mmol/g, prepared into CTC resin (Examples 4-7)
Conditions: whole synthesis, detection wavelength 220 nm

Row | Substance | final HPLC purity
1 | PEPTIDE1{A.V.S.E.H.Q.L.L.H.D.K.G.K.S.I.Q.D.L.R.R.R.E.L.L.E.K.L.L.[Aib].K.L.H.T.A.Y.G.F.G.G}$$$$V2.0 | 95.8%
2 | PEPTIDE1{A.V.S.E.H.Q.L.L.H.D.K.G.K.S.I.Q.D.L.R.R.R.E.L.L.E.K.L.L.[NMeAla].K.L.H.T.A.Y.G.F.G.G}$$$$V2.0 | 95.8%
3 | Ala-Val-Ser-Glu-His-Gln-Leu-Leu-His-Asp-Lys-Gly-Lys-Ser-Ile-Gln-Asp-Leu-Arg-Arg-Arg-Glu-Leu-Leu-Glu-Lys-Leu-Leu-Ala-Lys-Leu-His-Thr- Ala-Tyr-Arg-Gly-Phe-Gly-Gly (AVSEHQLLHDKGKSIQDLRRRELLEKLLAKLHTAYRGFGG; The sequence is synthesized) | 96.1%
4 | AVSEHQLIHDKGKSIQELRRRFFLHHLLAEIHTAYGFGG | 94.8%
